The results in this text go back to patent US20090068110A1, “ANTIBODIES TO INSULIN-LIKE GROWTH FACTOR RECEPTOR” (Genentech, Inc., priority 2006, published 2009).

These are yes or no findings as the source states them, for the method shown. Binding can be weak; no strength is given.

The target in this test is cynomolgus-monkey IGF-1R (cynomolgus monkey). The test can be described thus: SPR (BIACORE 3000), IgG as analyte, values in FIG. 15. Background: Surface plasmon resonance follows binding to a sensor surface in real time, without labels.

B1: chimeric 10H5-IgG (antibody, V domains shown)
VH: QVQLQQPGAELVKPGASVTLSCKASGYTFTRFWIHWVKQRPGQGLEWIGEINPSNGRTNYNENFKNKATLTVDTSSSTAYMQLSSLTSEVSVVYYCARGGRLDQWGQGTT
VL: DIVMTQSQKFMSTSLGDRVSVTCKASQNVGSNVAWYQQKPGQSPEALIYSASYRYSGVPDRFTGSGSGTDFTLTISNVQSEDLAEYFCHQYNNYPYTFGGGTKVEIKR
Regarding B1, the binding entry is listed as “binds”.
